These results are taken from article PMC11187126, “Structure and dynamics of the pyroglutamylated RF-amide peptide QRFP receptor GPR103” (Nature Communications, 2024).

Format in all cases: cell-based
One test concerns the target T1, GPR103 Q184^4.64A (Homo sapiens, UniProt Q96P65, Q184A).
T1 construct: we used human full-length QRFPR-encoding plasmids; expressed in transfected cells; host or cells: HEK293 cells, pCAGGS vector
T1 sequence (Q96P65 1-431 Q184A): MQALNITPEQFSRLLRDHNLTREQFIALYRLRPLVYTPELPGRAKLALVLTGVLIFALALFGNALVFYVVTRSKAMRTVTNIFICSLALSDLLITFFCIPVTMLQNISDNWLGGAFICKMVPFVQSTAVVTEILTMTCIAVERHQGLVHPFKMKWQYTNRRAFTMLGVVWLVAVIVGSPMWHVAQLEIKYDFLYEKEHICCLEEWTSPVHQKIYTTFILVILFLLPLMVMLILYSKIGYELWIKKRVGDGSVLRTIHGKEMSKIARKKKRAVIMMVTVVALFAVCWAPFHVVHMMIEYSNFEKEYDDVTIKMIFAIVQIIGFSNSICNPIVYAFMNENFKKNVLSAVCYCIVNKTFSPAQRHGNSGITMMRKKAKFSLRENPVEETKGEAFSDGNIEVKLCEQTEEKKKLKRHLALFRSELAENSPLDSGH
The test is described as follows: TGFα shedding assay; Exp. level WT (1:5). Here is the method: (§1) For the TGFα shedding assay and the flow cytometry analysis, we used human full-length QRFPR-encoding plasmids. Specifically, GPR103 was N-terminally modified with an HA signal sequence followed by a FLAG epitope and then a flexible linker ([…]; the FLAG epitope is underlined) and inserted into the pCAGGS vector. Plasmid encoding GPR103 mutants were generated using Quickchange Site-Directed Mutagensis kit (Agilent).
(§2) The TGFα shedding assay was performed as described previously with minor modifications. Plasmid transfection was performed in a 6-well plate with a mixture of 500 ng (per well in a 6-well plate) AP-TGFα-encoding plasmid and 200 ng GPR103-encoding plasmid. After 1-day culture, the transfected cells were harvested by trypsinization, pelleted by centrifugation at 190 × g for 5 min, and washed once with 5 mM HEPES (pH 7.4)-containing Hank’s Balanced Salt Solution (HBSS). After centrifugation, the cells were resuspended in 8 mL of the HEPES-containing HBSS. The cell suspension was seeded in a 96-well culture plate (cell plate) at a volume of 90 μL (per well hereafter) and incubated in a 37 °C incubator with 5% CO2 for 30 min. […] After spinning the cell plates at 190 × g for 2 min, 80 μL of conditioned media was transferred to an empty 96-well plate (conditioned media (CM) plate). […] Absorbance at 405 nm of the plates was measured using a microplate reader (SpectraMax 340 PC384, Molecular Devices) before and after 1-h incubation at room temperature. Ligand-induced AP-TGFα release was calculated by subtracting spontaneous AP-TGFα release signal from ligand-induced AP-TGFα release signal. […]
(§3) mutants. Data are presented as mean values ± SEM, normally n=3-5; dots), each performed in triplicate. b-d Cell-surface expression (b) and QRFP26-in-duced activation of GPR103 (c, d) were analyzed by the flow cytometry and the TGFα shedding assay, respectively. From the concentration–response curves (a), Emax (c) and ΔpEC50 (d) values relative to the wild type were calculated. […]

The target of the next test is T2, GPR103 C98^2.57A (Homo sapiens, UniProt Q96P65, C98A).
T2 construct: we used human full-length QRFPR-encoding plasmids; expressed in transfected cells; host or cells: HEK293 cells, pCAGGS vector
T2 sequence (Q96P65 1-431 C98A): T1 sequence (Q96P65 1-431 Q184A) with C98A, A184Q
Nature of the test: TGFα shedding assay; Exp. level WT (1:50). As to the method: as §1, §2, §3

The target of the next test is T3, wild-type GPR103 (Homo sapiens, UniProt Q96P65).
T3 construct: we used human full-length QRFPR-encoding plasmids; expressed in transfected cells; host or cells: HEK293 cells, pCAGGS vector
T3 sequence (Q96P65 1-431): T1 sequence (Q96P65 1-431 Q184A) with A184Q
The test is described as follows: TGFα shedding assay, HEK293 cells; WT titrated to lower expression (1:1 to 1:50). Particulars: WT (1:20). Here is the method:
as §1
The TGFα shedding assay was performed as described previously with minor modifications. Plasmid transfection was performed in a 6-well plate with a mixture of 500 ng (per well in a 6-well plate) AP-TGFα-encoding plasmid and 200 ng GPR103-encoding plasmid. […] Absorbance at 405 nm of the plates was measured using a microplate reader (SpectraMax 340 PC384, Molecular Devices) before and after 1-h incubation at room temperature. Ligand-induced AP-TGFα release was calculated by subtracting spontaneous AP-TGFα release signal from ligand-induced AP-TGFα release signal. […]
as §3

In a further test the target is T4, GPR103 I26N-termA (Homo sapiens, UniProt Q96P65, I26A).
T4 construct: we used human full-length QRFPR-encoding plasmids; expressed in transfected cells; host or cells: HEK293 cells, pCAGGS vector
T4 sequence (Q96P65 1-431 I26A): T1 sequence (Q96P65 1-431 Q184A) with I26A, A184Q
Nature of the test: TGFα shedding assay; Exp. level WT (1:20). Here is the method: as §1, §2, §3

Substitutions are numbered along the chain they refer to. The source gives many values for each of these; only a part stands here. No end group written: not given here.

For TSGPLGNLAEELNGYSRKKGGFSFRF-NH2 [QRFP26], the Emax at GPR103 Q184^4.64A (Exp. #1) is given as 102.80 % WT; at GPR103 Q184^4.64A (Exp. #2) it was 94.40 % WT; on GPR103 Q184^4.64A (Exp. #3), 102.08 % WT; on GPR103 C98^2.57A (Exp. #1), 92.54 % WT; on GPR103 C98^2.57A (Exp. #2), 77.71 % WT; at GPR103 C98^2.57A (Exp. #3), 87.63 % WT. The Emax stood at 67.26 % WT on wild-type GPR103 (Exp. #4); 61.58 % WT on wild-type GPR103 (Exp. #5); 99.84 % WT on GPR103 I26N-termA (Exp. #1); 82.98 % WT on GPR103 I26N-termA (Exp. #2); 102.40 % WT on GPR103 I26N-termA (Exp. #3).
